Measurements reported in article PMC6590835, “A unified mechanism for LLPS of ALS/FTLD-causing FUS as well as its modulation by ATP and oligonucleic acids”.
Construct, isoform or probe ends are uncertain for at least one entry. At least one verdict rests on a figure or table, not on a statement of the authors. Protein sequences can lack the tags named with them.

Tests used:
FUS NTD (PLD+RGG1) = target: T1, FUS NTD (PLD+RGG1) (UniProt P35637); assay: DIC microscopy (LLPS dissolved at 1:5); conditions: 1 mM MgCl2, indirect read-out; 20 uM protein, 5 mM sodium phosphate pH 6.0, 1 mM MgCl2 (ZnCl2 added for full-length FUS and F-CTD), 25 C; recombinant protein; residues 1-267
T1 sequence (looked up): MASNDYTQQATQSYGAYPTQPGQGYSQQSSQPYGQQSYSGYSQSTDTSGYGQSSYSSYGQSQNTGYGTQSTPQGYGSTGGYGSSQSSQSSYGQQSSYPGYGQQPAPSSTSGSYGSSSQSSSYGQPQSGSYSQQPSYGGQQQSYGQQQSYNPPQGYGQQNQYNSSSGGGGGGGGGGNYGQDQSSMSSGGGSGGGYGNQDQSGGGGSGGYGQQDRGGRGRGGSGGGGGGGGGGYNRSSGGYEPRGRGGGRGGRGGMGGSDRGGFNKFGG

[1] = target: T2, FUS U-CTD (RGG2-ZnF-RGG3, ZnF unfolded) (UniProt P35637); assay: DIC microscopy (LLPS induced then dissolved); conditions: 1 mM MgCl2, no Zn, indirect read-out; 20 uM protein, 5 mM sodium phosphate pH 6.0, 1 mM MgCl2 (ZnCl2 added for full-length FUS and F-CTD), 25 C; recombinant protein; residues 371-526
T2 sequence (looked up): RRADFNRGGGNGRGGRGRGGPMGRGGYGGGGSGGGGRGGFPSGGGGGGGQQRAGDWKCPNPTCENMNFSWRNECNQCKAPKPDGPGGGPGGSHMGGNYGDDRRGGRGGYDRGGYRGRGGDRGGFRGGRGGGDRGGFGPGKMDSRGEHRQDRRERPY

[2] = target: T3, FUS F-CTD (RGG2-ZnF-RGG3, ZnF folded) (UniProt P35637); assay: DIC microscopy (LLPS induced 1:2, dissolved 1:10); conditions: 1 mM MgCl2, Zn2+, indirect read-out; 20 uM protein, 5 mM sodium phosphate pH 6.0, 1 mM MgCl2 (ZnCl2 added for full-length FUS and F-CTD), 25 C; recombinant protein; residues 371-526
T3 sequence (looked up): T2 sequence (looked up)

FUS full-length = target: T4, FUS full-length (UniProt P35637); assay: DIC microscopy (LLPS enhanced 1:2, dissolved 1:15); conditions: 1 mM MgCl2, indirect read-out; 20 uM protein, 5 mM sodium phosphate pH 6.0, 1 mM MgCl2 (ZnCl2 added for full-length FUS and F-CTD), 25 C; recombinant protein; residues 1-526
T4 sequence (looked up): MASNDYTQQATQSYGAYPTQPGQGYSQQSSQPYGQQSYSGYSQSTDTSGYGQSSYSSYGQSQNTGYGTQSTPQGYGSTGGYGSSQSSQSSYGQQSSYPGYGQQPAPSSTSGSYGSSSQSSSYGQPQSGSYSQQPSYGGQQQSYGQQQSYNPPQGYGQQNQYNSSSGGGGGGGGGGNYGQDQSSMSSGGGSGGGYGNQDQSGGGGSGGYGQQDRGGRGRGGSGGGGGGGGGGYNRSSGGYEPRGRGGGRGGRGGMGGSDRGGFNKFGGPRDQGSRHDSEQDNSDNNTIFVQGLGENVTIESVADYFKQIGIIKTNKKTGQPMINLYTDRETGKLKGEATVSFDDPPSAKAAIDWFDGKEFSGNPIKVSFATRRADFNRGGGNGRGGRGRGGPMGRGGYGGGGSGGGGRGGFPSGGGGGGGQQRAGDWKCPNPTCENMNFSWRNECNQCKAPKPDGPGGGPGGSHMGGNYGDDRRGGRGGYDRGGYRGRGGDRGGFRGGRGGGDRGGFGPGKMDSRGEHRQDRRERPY

Measured: binding result

UAGUUUGGUGAU [12-mer RNA]
binds: all assays above
